From patent US11452303B2, “Methods for feeding sows and for improving the health of young piglets” (PURINA ANIMAL NUTRITION LLC, priority 2003, dated 2022) come the findings set out here.

A short description of this series: Sow performance: feed intake. Type of series: in vivo, swine. The settings on record: for sow feed intake during the pre-weaning period compared to Control: Trial A and Trial B (26 and 52 grams sorbitol per day).

As to `OC[C@@H](O)[C@@H](O)[C@H](O)[C@@H](O)CO` [sorbitol], the “sow feed intake during the pre-weaning period compared to Control” value was “did not experience any significant increase in feed intake” (Parity ≥ 1) and “did not experience any significant increase in feed intake” (Parity ≥ 2). In addition, the “Sow Feed Intake (mean daily)” value came out at 9.77 pounds (Trial A, 26 grams sorbitol per day, Parity ≥ 1, Day 1 thru Day 7); 11.84 pounds (Trial A, 26 grams sorbitol per day, Parity ≥ 1, Day 1 thru Day 14); 12.45 pounds (Trial A, 26 grams sorbitol per day, Parity ≥ 1, Day 1 thru Day 18); 12.91 pounds (Trial A, 26 grams sorbitol per day, Parity ≥ 1, Day 1 thru Weaning); 13.92 pounds (Trial A, 26 grams sorbitol per day, Parity ≥ 1, Day 8 thru Day 14); 10.67 pounds (Trial A, 26 grams sorbitol per day, Parity ≥ 2, Day 1 thru Day 7). Further, the “Sow Feed Intake (mean daily)” value is recorded as 12.77 pounds (Trial A, 26 grams sorbitol per day, Parity ≥ 2, Day 1 thru Day 14); 13.31 pounds (Trial A, 26 grams sorbitol per day, Parity ≥ 2, Day 1 thru Day 18); 13.70 pounds (Trial A, 26 grams sorbitol per day, Parity ≥ 2, Day 1 thru Weaning); 14.87 pounds (Trial A, 26 grams sorbitol per day, Parity ≥ 2, Day 8 thru Day 14); 8.65 pounds (Trial B, 52 grams sorbitol per day, Parity ≥ 1, Day 1 thru Day 7); 10.87 pounds (Trial B, 52 grams sorbitol per day, Parity ≥ 1, Day 1 thru Day 14). Besides, the “Sow Feed Intake (mean daily)” value by setting is: (Trial B, 52 grams sorbitol per day, Parity ≥ 1, Day 1 thru Day 18) 11.68 pounds; (Trial B, 52 grams sorbitol per day, Parity ≥ 1, Day 1 thru Weaning) 12.22 pounds; (Trial B, 52 grams sorbitol per day, Parity ≥ 1, Day 8 thru Day 14) 13.11 pounds; (Trial B, 52 grams sorbitol per day, Parity ≥ 2, Day 1 thru Day 7) 10.00 pounds; (Trial B, 52 grams sorbitol per day, Parity ≥ 2, Day 1 thru Day 14) 12.37 pounds; (Trial B, 52 grams sorbitol per day, Parity ≥ 2, Day 1 thru Day 18) 13.07 pounds. Besides, the “Sow Feed Intake (mean daily)” value was found to be 13.55 pounds (Trial B, 52 grams sorbitol per day, Parity ≥ 2, Day 1 thru Weaning) and 14.74 pounds (Trial B, 52 grams sorbitol per day, Parity ≥ 2, Day 8 thru Day 14). For the same compound, the “feed intake decrease versus Control sow feed intake” value (Trial B, 52 grams sorbitol per day, Parity ≥ 1, over each of the measurement periods of the pre-weaning period) is recorded as “about 0.70 pounds”.
